Laboratory results published in the supplement of paper PMC6411743.
± gives the standard deviation of the averaged measurements. The list shows a part of the results, in another mix than the full data.

Assays:
Experiment in all cases: NP40-soluble protein abundance relative to vehicle (solubility fold change) (ratio); higher = more soluble protein in presence of ATP
[1] = biological target: T1, PREB (UniProt Q9HCU5)
T1 sequence (whole entry): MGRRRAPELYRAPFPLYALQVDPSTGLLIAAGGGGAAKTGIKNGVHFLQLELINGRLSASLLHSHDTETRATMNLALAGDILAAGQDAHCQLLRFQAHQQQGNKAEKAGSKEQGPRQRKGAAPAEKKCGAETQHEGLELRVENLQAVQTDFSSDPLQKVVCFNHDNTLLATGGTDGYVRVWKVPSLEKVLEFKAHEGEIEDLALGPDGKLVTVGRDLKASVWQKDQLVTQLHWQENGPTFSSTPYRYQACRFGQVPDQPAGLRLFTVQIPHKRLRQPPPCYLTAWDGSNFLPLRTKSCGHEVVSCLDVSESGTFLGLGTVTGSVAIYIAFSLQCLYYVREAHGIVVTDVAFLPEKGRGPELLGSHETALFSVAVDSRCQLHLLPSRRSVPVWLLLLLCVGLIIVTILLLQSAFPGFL
Procedure, shortened: (§1)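 Jurkat crude lysate (Dounce-homogenised) was treated with eight concentrations from 0.1 to 10 mM for 10 min at room temperature, then 3 min at 37 °C. It was solubilised with 0.8% NP40 and benzonase (60 min, 4 °C) and ultracentrifuged, and the supernatant was TMT-labelled for LC-MS/MS. Intensities were vsn-normalised, and the value is the fold change against the NP40-processed vehicle per replicate, from three independent experiments.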

[2] = biological target: T2, PRKRIP1 (UniProt Q9H875)
T2 sequence (whole entry): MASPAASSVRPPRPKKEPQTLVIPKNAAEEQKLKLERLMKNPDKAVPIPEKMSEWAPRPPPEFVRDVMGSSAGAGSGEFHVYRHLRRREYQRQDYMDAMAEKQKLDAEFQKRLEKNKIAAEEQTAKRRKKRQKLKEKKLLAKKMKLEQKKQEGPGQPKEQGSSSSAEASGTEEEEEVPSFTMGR
Procedure, shortened: as §1

[3] = biological target: T3, RAB3GAP2 (UniProt Q9H2M9)
T3 sequence (whole entry): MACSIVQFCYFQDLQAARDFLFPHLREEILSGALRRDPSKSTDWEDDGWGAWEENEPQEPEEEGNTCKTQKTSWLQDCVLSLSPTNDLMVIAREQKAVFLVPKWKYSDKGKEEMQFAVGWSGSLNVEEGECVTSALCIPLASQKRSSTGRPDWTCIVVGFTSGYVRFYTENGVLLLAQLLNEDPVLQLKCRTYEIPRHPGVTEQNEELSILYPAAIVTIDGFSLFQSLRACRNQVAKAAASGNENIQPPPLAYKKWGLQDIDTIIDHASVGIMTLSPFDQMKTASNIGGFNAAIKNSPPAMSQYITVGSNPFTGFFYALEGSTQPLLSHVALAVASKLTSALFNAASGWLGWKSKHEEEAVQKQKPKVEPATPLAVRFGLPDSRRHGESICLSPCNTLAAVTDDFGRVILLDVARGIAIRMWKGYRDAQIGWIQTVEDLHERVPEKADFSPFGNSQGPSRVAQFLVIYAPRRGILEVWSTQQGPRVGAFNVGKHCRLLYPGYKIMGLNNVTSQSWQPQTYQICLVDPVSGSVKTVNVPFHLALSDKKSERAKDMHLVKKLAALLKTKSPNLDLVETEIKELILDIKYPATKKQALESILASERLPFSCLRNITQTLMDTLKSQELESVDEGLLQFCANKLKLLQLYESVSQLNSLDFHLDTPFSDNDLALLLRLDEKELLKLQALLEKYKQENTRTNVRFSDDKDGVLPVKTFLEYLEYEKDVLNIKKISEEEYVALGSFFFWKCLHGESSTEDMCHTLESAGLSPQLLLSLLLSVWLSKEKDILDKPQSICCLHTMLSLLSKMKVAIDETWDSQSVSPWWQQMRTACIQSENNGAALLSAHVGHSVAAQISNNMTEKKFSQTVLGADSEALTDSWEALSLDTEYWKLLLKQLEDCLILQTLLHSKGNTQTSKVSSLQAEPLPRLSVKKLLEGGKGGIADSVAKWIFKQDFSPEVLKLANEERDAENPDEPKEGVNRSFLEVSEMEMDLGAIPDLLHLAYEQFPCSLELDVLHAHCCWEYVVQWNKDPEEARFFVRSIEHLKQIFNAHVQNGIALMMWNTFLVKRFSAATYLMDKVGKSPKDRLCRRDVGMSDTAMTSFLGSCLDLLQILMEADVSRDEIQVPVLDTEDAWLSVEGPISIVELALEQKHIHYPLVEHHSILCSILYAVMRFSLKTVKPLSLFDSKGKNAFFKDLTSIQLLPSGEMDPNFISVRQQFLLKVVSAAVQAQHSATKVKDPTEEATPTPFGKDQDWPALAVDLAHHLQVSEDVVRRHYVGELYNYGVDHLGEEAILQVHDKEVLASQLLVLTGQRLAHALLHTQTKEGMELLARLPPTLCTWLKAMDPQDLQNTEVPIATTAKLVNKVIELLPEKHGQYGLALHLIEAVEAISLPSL
Procedure, shortened: as §1

[4] = biological target: T4, SMYD3 (UniProt Q9H7B4)
T4 sequence (whole entry): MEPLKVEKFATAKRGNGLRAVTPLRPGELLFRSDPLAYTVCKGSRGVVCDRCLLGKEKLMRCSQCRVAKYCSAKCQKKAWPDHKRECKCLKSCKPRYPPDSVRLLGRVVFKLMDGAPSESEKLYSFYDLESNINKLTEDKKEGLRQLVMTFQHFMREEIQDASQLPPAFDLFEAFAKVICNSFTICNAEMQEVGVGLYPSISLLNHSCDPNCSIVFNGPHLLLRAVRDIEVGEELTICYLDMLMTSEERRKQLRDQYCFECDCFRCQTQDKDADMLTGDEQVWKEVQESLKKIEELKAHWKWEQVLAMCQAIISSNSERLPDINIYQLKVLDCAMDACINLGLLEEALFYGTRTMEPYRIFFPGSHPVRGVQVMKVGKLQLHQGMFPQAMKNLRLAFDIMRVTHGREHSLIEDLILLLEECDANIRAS
Procedure, shortened: as §1

[5] = biological target: T5, UniProt Q9H078-2
T5 sequence (whole entry): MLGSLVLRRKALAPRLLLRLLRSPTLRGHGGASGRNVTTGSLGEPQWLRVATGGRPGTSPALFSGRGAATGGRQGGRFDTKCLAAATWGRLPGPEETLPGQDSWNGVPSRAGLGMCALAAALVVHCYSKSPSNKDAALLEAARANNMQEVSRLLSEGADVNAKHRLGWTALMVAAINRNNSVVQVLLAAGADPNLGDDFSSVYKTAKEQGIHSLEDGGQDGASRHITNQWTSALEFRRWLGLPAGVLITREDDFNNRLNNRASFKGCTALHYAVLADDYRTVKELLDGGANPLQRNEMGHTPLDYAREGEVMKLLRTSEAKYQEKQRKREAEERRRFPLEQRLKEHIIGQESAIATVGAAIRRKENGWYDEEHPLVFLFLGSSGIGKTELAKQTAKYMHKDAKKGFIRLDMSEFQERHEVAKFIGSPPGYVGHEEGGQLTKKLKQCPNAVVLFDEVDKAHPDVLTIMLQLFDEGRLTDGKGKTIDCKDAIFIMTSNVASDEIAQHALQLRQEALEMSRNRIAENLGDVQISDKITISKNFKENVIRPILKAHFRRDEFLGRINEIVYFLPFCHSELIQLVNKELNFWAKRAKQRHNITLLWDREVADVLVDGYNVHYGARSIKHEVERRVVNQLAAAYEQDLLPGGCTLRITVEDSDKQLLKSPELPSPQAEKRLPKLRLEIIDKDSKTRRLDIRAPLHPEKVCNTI
Procedure, shortened: as §1

`Nc1ncnc2c1ncn2[C@@H]1O[C@H](COP(=O)(O)OP(=O)(O)OP(=O)(O)O)[C@@H](O)[C@H]1O` [adenosine triphosphate] showed an NP40-soluble protein abundance ([1]; concentration: 6mM) of 1.02 ± 0.052, an NP40-soluble protein abundance ([1]; concentration: 8mM) of 1.02 ± 0.063 and an NP40-soluble protein abundance ([1]; concentration: 10mM) of 1.02 ± 0.042. It also gave an NP40-soluble protein abundance ([2]; concentration: 1mM) of 0.946 ± 0.088, an NP40-soluble protein abundance ([2]; concentration: 2mM) of 0.958 ± 0.06 and an NP40-soluble protein abundance ([2]; concentration: 4mM) of 0.954 ± 0.073. The NP40-soluble protein abundance ([2]; concentration: 6mM) was 0.999 ± 0.021, the NP40-soluble protein abundance ([2]; concentration: 8mM) was 0.972 ± 0.021 and the NP40-soluble protein abundance ([2]; concentration: 10mM) was 0.907 ± 0.18. For the same molecule, the NP40-soluble protein abundance ([3]; concentration: 1mM) was 1.04 ± 0.055, the NP40-soluble protein abundance ([3]; concentration: 2mM) was 1.02 ± 0.044 and the NP40-soluble protein abundance ([3]; concentration: 4mM) was 0.99 ± 0.041. The NP40-soluble protein abundance ([3]; concentration: 6mM) was 0.978 ± 0.064, the NP40-soluble protein abundance ([3]; concentration: 8mM) was 1.01 ± 0.028 and the NP40-soluble protein abundance ([3]; concentration: 10mM) was 0.99 ± 0.031. The NP40-soluble protein abundance ([4]; concentration: 1mM) was 1.07 ± 0.11, the NP40-soluble protein abundance ([4]; concentration: 2mM) was 1.06 ± 0.081 and the NP40-soluble protein abundance ([4]; concentration: 4mM) was 1.03 ± 0.1. For the same molecule, the NP40-soluble protein abundance ([4]; concentration: 6mM) was 0.989 ± 0.12, the NP40-soluble protein abundance ([4]; concentration: 8mM) was 1.09 ± 0.097 and the NP40-soluble protein abundance ([4]; concentration: 10mM) was 1.06 ± 0.071. The NP40-soluble protein abundance ([5]; concentration: 1mM) was 1.13 ± 0.023, the NP40-soluble protein abundance ([5]; concentration: 2mM) was 1.1 ± 0.029 and the NP40-soluble protein abundance ([5]; concentration: 4mM) was 1.09 ± 0.047. The NP40-soluble protein abundance ([5]; concentration: 6mM) was 1.08 ± 0.025, the NP40-soluble protein abundance ([5]; concentration: 8mM) was 1.11 ± 0.035 and the NP40-soluble protein abundance ([5]; concentration: 10mM) was 1.12 ± 0.046.
